This is one part of the list.
B1: il10ra_site1_sap_21_mot_104c758fc23488854646035ccb2100c6_0001_000000282_0001_15_29_H_._203a44625a3a2ba431098544127a80a6_0001_0001_0000100001_0000002_0_0001 (protein)
chain: SSSEEEVEELVKEVERVAEERGDPEARRVAEFLEAMARQAREQNNEEALRSISWALRAFREVFSS
B2: il10ra_site1_normal_mot_HHH_b1_06914_000000280_0001_1_18_H_._HHH_b1_05137_0001_0000100004_0000001_0 (protein)
chain: SSSSDEETEEIYELLRRAAELLAEGNPEEAKEVLEEARELAEEINSEMFRFAVRLLLRDLSSSSS
B3: il10ra_site1_normal_mot_HHH_b1_02708_af2_000000019_0001_23_39_H_._e0a7e7c149437fae01dc270677924e9f_0001_1_0001_0000100001_0000001_0 (protein)
chain: SLEEEVTELVRELGLPPMVESAVRSFVLAKELGDEEYLKIAEHFLEAQARRDPNVEEVLRFLRER
B4: il10ra_site1_normal_mot_HHH_b2_01447_af2_000000258_0001_1_20_H_._HHH_b1_04789_af2_0001_0000200017_0000001_0 (protein)
chain: SSSSDELQEVMELIRRLSEAIQEGDEELVEKLAEEAERLARELNNPILEFSVRHAVRLFENSSSS
B5: il10ra_site1_normal_mot_HHH_b2_02337_000000026_0001_38_52_H_._HHH_b1_00071_0001_0000200031_0000001_0 (protein)
chain: SSSSSEEVEELIELVEELLRQGNYEEALRVVWRAVHLAVELDDPELIQELFELTHRLARGSSSSS
B6: il10ra_site1_normal_mot_HHH_b1_03262_af2_000000181_0001_43_57_H_._HHH_b2_06532_0001_0000200016_0000001_0_af2pred_0001 (protein)
chain: SSSSSHEEALRRLLKAIRLALRQGDEEEAKLALRFVKFLAEEANDDEVLREVEKLEELLESSSSS
B7: il10ra_site1_sap_22_mot_HHH_b2_07873_af2_000000172_0001_1_19_H_._HHH_b2_07566_af2_0001_0000300011_0000001_0_0001 (protein)
chain: SSSSDASEEVARLLRRVVELDNEGDEEEARELLEEARRLAEEANNDVVLVQVEYLERLLNSSSSS
B8: il10ra_site1_sap_21_mot_HHH_b2_05343_000000235_0001_19_35_H_._HHH_b2_06540_0001_0000100006_0000001_0_0001_af2pred_0001 (protein)
chain: SSSSDEEEERLRRLLEAIKRLIELGDDERAKLTLKIVKLVAELLNDEEIRELVEELERELRSSSS
B9: il10ra_site1_sap_12_mot_HHH_b1_02881_000000046_0001_1_20_H_._HHH_b1_03212_0001_0000100004_0000001_0_0001 (protein)
chain: SSSSDLEEKFIKLAQEAIRYAFRKRDEEALRALWRLVHEFLKKGDPEILEELEELLEELEGSSSS
B10: il10ra_site1_normal_mot_HHH_b1_08477_000000091_0001_40_57_H_._HHH_b1_07800_0001_0000100001_0000001_0_af2pred_0001 (protein)
chain: SSSSDEQEELVELAIKFARRLAEAGDPEAARRIIEAALEQARRNNNEELQEKLEELLEELESSSS
B11: il10ra_site1_sap_19_mot_HHH_b2_02463_af2_000000222_0001_1_19_H_._HHH_b1_03195_0001_0000200026_0000001_0_0001 (protein)
chain: SSSSTDASHEIYRLSREAAELLRNGDPEEAEKLIEEAEELAKEENNRVVLYALRVLLRAIRSSSS
B12: il10ra_site1_normal_mot_8756ee2cf497b5429c717dfc0c0bcfd6_0001_000000186_0001_1_13_H_._HHH_b1_04860_af2_0001_0000200010_0000001_0 (protein)
chain: SSSSNEIEEVYRLSREAAELLHEGNPEEAREVLERARELAEELNNDVTLYAIEYAERQLESSSSS
B13: il10ra_site1_sap_26_mot_HHH_b2_07579_000000275_0001_1_19_H_._HHH_b1_08577_0001_0000100002_0000002_0_0001_af2pred_0001 (protein)
chain: SSSSSSEEEVEELLEQIEELLKRRDRQEVLKLLKRVLKLAFELNDPELLEKVRELLEKLASSSSS
B14: il10ra_site1_sap_15_mot_HHH_b2_06142_af2_000000101_0001_1_18_H_._HHH_b1_08554_0001_0000200016_0000002_0_0001 (protein)
chain: SSSSDAERYVELSIRFARWLFEAGDPEAARFILEAAKHAAERAGNPELKEELEEVLEELEKSSSS
B15: il10ra_site1_sap_22_mot_HHH_b2_04274_000000146_0001_1_19_H_._HHH_b2_06545_0001_0000100004_0000001_0_0001 (protein)
chain: SSSSSDEEIEERVEELIEELEKVSPEEQYELLREAAELAHEANDPELARLVLEASRRVTSSSSSS
B16: il10ra_site1_sap_11_mot_HHH_b2_06497_000000202_0001_1_20_H_._HHH_b2_07590_0001_0000200012_0000001_0_0001 (protein)
chain: SSSSSSEENRRAYELLEEAFEVEDPEEAEELLREAEKLAEEAGNWALLFAIRLLLKDLKSSSSSS
B17: il10ra_site1_sap_17_mot_65b8060e20531850bca9f2e11f97d954_0001_af2_000000137_0001_17_31_H_._HHH_b2_07453_af2_0001_0000300007_0000001_0_0001 (protein)
chain: SSSSSSDEELLKLSMEAFRLALRGNPEKAEEVLEKAEELAERLGDEELLKMIQRLLEALRSSSSS
B18: il10ra_site1_sap_24_mot_HHH_b2_02116_af2_000000165_0001_41_55_H_._HHH_b1_05383_0001_0000100002_0000001_0_0001 (protein)
chain: SSSSSDEHQIRTHVEAILWFAKWVDNPTALEAMLEAARRYAEELNDEELEELVKKVEEELSSSSS
B19: il10ra_site1_normal_mot_HHH_b2_08186_000000021_0001_43_56_H_._HHH_b1_08707_0001_0000400035_0000001_0 (protein)
chain: SSSSSDIEELLEEAERLAEEGNPEEALRLLQEALRLIFENQDEELLQELWEVLRLVARLSSSSSS
B20: il10ra_site1_sap_29_mot_0eddeacbb14b769e73e254714f31e2f9_0001_af2_000000127_0001_37_51_H_._HHH_b2_03913_af2_0001_0000600015_0000001_0_0001 (protein)
chain: SSSSSDRQEALEVVLHAFRAALRGDREKAEELVEEALEIAEEAGNERLIEMLRRLLKTISSSSSS
B21: il10ra_site1_sap_15_mot_ems_3hM_3349_af2_000000045_0001_25_42_H_._4ed9a5f8f545a7adfbbbb13291f3784e_0001_0001_0000300024_0000001_0_0001_af2pred_dldesign_0_af2pre … (protein)
chain: SSSSDLKKKVEELLAQLRAAQTAEERWNLLVEAYKLAKESKDEELLKKVEEVAKEAAERLSSSSS
B22: il10ra_site1_sap_23_mot_HHH_b1_06788_af2_000000238_0001_19_36_H_._HHH_b1_04268_0001_0000100006_0000002_0_0001 (protein)
chain: SSSSSEEEELAEALIRMIQQAIEHGDEELVEFLLIALEMLAEELNDPELEEELRRLEELINSSSS
B23: il10ra_site1_normal_mot_HHH_b2_00277_af2_000000172_0001_1_17_H_._HHH_b1_05907_0001_0000200015_0000001_0 (protein)
chain: SSSSSSDTEERVEELLEEAKKISDPRHVSHLLIQAYAVANQSNDEELRREVEEVARRLISSSSSS
B24: il10ra_site1_normal_mot_HHH_b1_07256_000000044_0001_1_17_H_._HHH_b1_03517_0001_0000300021_0000001_0 (protein)
chain: SSSDERQEILELIIEAARLLFRGNPEEARKLAEEAEELVEELNDPALQRAVEILKEAIEINSSSS
B25: il10ra_site1_sap_17_mot_HHH_b1_07608_af2_000000080_0001_39_52_H_._HHH_b1_01502_af2_0001_0000400028_0000001_0_0001 (protein)
chain: SSSSSDEEVEERVRELLEELHKVDPQEAYELLREAIELASQNNNPELMREIQEALREWMHSSSSS
B26: il10ra_site1_normal_mot_HHH_b2_07579_000000275_0001_1_19_H_._HHH_b1_01139_af2_0001_0000300023_0000001_0_af2pred_0001 (protein)
chain: SSSSSEEKRKVLELLRKALEIEDKEEAEKVVEEAVRLAEELNDPLAAKLAEMLLEQLEKGSSSSS
B27: il10ra_site1_normal_mot_HHH_b1_00456_000000263_0001_1_17_H_._HHH_b1_03126_0001_0000100016_0000001_1_af2pred_0001 (protein)
chain: SSSSSSEEIQEEVEELLEEAKRIPDPEEAAHFLIRAFALANRLNDPELKELVRKVAIELLSSSSS
B28: il10ra_site1_normal_mot_HHH_b2_07521_000000141_0001_20_37_H_._HHH_b2_07723_0001_0000100012_0000001_0_af2pred_0001 (protein)
chain: SSSDLEKRVRLALRFAKFLLEQGDPEAARIIIEAAKEIAEDAGNEELQKEIEELLKEIEEKSSSS
B29: il10ra_site1_sap_20_mot_HHH_b2_04087_000000122_0001_42_56_H_._HHH_b2_08070_0001_0000400010_0000001_0_0001 (protein)
chain: SSSSDDEEYLEMALRFIEWAIKVGDEESAKRMIKAAEDIAKRLGNEEILERLEELLERLNSSSSS
B30: il10ra_site1_normal_mot_HHH_b2_05343_000000235_0001_19_35_H_._HHH_b2_03467_0001_0000300029_0000001_0 (protein)
chain: SSSSDEIEERLKELREELEELTDPQELFELIREMIELASEANSPEAARFVLEVIREWLEGSSSSS
B31: il10ra_site1_sap_15_mot_HHH_b1_02062_000000185_0001_1_20_H_._HHH_b2_06569_0001_0000400030_0000001_0_0001_af2pred_dldesign_0_af2pred (protein)
chain: SSSSSSQTRQRIRAILWFARVSSNPVVARAMLERAIELAKEIEDEELIKEAEEALKELESSSSSS
B32: il10ra_site1_sap_13_mot_HHH_b2_04592_000000276_0001_41_54_H_._2e374b53e75dc1c2421ca5e7055e643f_0001_0001_0000200012_0000001_0_0001_af2pred_dldesign_0_af2pred (protein)
chain: SSSSSDDREKLERALKYLEFIKEQGDKEAFEKHAAALLQVAKILGDEETVARVEELAAELSSSSS
B33: il10ra_site1_sap_16_mot_HHH_b2_03220_af2_000000223_0001_23_40_H_._HHH_b1_06161_af2_0001_0000300008_0000002_0_0001 (protein)
chain: SSSSSSDEEAAELIREISKVLAEGDRERVEELLEELEKLAEELGDPAARIYVEFVKQLLSSSSSS
B34: il10ra_site1_normal_mot_HHH_b2_00108_000000012_0001_38_56_H_._HHH_b2_04021_0001_0000200012_0000002_0_af2pred_0001 (protein)
chain: SSSSSEESASRFWRRSLKLALEAGNEEELKAALKAAKFLAELTNDEELEEEVEEIERELKSSSSS
B35: il10ra_site1_normal_mot_HHH_b1_06789_af2_000000041_0001_1_20_H_._HHH_b1_02788_0001_0000100006_0000001_0 (protein)
chain: SSSSDLEEEIEEAIEEARENGDELIVQILEILLRQIRRDGSPNARWLVRQVIKALKNLLENSSSS
B36: il10ra_site1_normal_mot_HHH_b2_08186_000000021_0001_43_56_H_._HHH_b2_00017_af2_0002_0000200015_0000001_0 (protein)
chain: SSSSDEEEKEVEELLEEAEKLLEEGNPEEALEVLLKALQLAYELGNAELLRRLWELLRKVLSSSS
B37: il10ra_site1_normal_mot_HHH_eva_0271_000000006_0001_43_61_H_._HHH_b1_00868_0001_0000100005_0000001_0_af2pred_0001 (protein)
chain: SSSSDLELQQRLAELILELAEELGLNSEEIAEISHEIAHLIANGVSEEELREIVEQLVRELSSSS

target: il10ra, Q13651; test: yeast display titration

Apparent Kd, inactive:
B1 no binding seen, B2 no binding seen, B3 no binding seen, B4 no binding seen, B5 no binding seen, B6 no binding seen, B7 no binding seen, B8 no binding seen, B9 no binding seen, B10 no binding seen, B11 no binding seen, B12 no binding seen, B13 no binding seen, B14 no binding seen, B15 no binding seen, B16 no binding seen, B17 no binding seen, B18 no binding seen, B19 no binding seen, B20 no binding seen, B21 no binding seen, B22 no binding seen, B23 no binding seen, B24 no binding seen, B25 no binding seen, B26 no binding seen, B27 no binding seen, B28 no binding seen, B29 no binding seen, B30 no binding seen, B31 no binding seen, B32 no binding seen, B33 no binding seen, B34 no binding seen, B35 no binding seen, B36 no binding seen, B37 no binding seen
